Experimental data: paper PMC11494032
Results are given in words; binding and its absence hold for the method and conditions named. In cells and extracts the contact can be indirect. For part of these data: Binding calls can cover weak binding; strength is not graded here.

By UniProt entry, the sequences of proteins in these tests, tags left out. Where a name states a change or a piece, a line headed by the entry shows the natural chain unless it says otherwise.
UniProt P02545: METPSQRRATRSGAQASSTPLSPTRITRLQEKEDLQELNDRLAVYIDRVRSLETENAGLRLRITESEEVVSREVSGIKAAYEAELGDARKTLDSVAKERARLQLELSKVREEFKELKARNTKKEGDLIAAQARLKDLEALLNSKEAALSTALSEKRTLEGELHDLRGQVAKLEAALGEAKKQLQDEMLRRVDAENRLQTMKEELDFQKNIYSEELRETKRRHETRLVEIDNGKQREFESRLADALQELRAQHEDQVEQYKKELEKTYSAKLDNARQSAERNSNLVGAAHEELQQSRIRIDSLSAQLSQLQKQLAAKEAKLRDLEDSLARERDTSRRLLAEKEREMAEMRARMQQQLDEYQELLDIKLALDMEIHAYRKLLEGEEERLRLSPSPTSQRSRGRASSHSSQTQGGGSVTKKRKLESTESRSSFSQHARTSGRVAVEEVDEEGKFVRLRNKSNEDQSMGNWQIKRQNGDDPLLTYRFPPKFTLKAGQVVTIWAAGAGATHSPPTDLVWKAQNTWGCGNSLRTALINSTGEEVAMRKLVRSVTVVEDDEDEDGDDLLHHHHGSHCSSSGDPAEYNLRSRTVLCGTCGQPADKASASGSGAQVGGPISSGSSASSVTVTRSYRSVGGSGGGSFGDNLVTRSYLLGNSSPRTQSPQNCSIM
UniProt P22216: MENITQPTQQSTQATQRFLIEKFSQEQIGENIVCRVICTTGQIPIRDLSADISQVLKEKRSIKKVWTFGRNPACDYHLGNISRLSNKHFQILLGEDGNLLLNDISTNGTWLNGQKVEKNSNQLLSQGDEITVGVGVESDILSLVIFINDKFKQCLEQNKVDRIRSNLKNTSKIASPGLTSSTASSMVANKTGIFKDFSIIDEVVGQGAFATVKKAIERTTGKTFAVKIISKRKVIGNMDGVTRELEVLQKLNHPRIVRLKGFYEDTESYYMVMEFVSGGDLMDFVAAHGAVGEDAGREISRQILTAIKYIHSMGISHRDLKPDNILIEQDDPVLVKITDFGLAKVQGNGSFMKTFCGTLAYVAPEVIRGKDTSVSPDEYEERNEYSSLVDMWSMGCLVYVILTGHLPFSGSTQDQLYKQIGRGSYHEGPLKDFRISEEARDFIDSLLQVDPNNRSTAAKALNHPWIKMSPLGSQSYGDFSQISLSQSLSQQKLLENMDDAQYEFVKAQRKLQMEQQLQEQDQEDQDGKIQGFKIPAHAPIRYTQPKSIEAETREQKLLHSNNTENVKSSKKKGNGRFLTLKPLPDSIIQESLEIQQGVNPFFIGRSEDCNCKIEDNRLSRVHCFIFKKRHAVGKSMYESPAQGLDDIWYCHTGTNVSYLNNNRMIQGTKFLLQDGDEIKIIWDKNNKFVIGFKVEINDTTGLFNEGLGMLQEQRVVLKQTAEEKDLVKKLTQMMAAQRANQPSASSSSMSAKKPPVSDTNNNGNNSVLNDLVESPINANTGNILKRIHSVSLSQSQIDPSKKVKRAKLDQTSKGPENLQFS

Columns and labels:
[1] = biological target: full-length lamin A of LAPS with S22A (UniProt P02545); assay: FRET or BRET; live HeLa cells expressing LAPS (FHA2, YPet, 34-amino-acid linker, ECFP and full-length lamin A on one chain); ratio of the FRET and ECFP channels by confocal microscopy, 445-nm excitation; mitosis against interphase; also hypotonic medium, cell adhesion, release from RO-3306 or double thymidine
[2] = biological target: full-length lamin A of LAPS with S392A, phosphorylated at serine 22 (UniProt P02545); assay: as above
[3] = biological target: full-length lamin A of LAPS, phosphorylated at serine 22 (UniProt P02545); assay: FRET or BRET; live HeLa cells expressing pLamin A biosensor 2.0 (as LAPS but with the EV linker of 120 amino acids); FRET ratio as cells exit mitosis

Substance: FHA2 domain of the lamin A phosphorylation sensor (LAPS), wild type (from UniProt P22216) (domain or fragment)
- binding [1]: no binding
- binding [2]: binds
- binding [3]: binds
